Source: paper PMC11661375
These are yes or no findings as the source states them, for the method shown. Binding seen in cells or lysates may run through a third protein. A yes stands for co-enrichment or nearness to the bait. Other partners may have been found. Tags and fused reporters may be left off the sequences shown.

Target: T1, CBU_0937 tagged with C-terminal 3XFLAG (Coxiella burnetii) (UniProt Q83D09)
T1 sequence: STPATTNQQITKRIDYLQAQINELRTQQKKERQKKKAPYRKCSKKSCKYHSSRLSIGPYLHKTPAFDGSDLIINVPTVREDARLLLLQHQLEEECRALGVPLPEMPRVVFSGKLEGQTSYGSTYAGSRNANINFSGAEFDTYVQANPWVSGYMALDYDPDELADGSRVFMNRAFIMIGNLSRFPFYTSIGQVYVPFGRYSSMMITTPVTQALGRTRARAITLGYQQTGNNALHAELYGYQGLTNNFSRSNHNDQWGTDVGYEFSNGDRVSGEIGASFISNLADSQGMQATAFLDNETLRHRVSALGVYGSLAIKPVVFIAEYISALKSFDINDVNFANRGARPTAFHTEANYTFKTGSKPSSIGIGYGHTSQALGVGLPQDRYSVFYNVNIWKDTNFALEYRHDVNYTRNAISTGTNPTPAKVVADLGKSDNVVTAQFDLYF
Test: affinity purification with mass spectrometry

B1: CYP1B1 (enzyme, UniProt Q16678 1-543)
chain: MGTSLSPNDPWPLNPLSIQQTTLLLLLSVLATVHVGQRLLRQRRRQLRSAPPGPFAWPLIGNAAAVGQAAHLSFARLARRYGDVFQIRLGSCPIVVLNGERAIHQALVQQGSAFADRPAFASFRVVSGGRSMAFGHYSEHWKVQRRAAHSMMRNFFTRQPRSRQVLEGHVLSEARELVALLVRGSADGAFLDPRPLTVVAVANVMSAVCFGCRYSHDDPEFRELLSHNEEFGRTVGAGSLVDVMPWLQYFPNPVRTVFREFEQLNRNFSNFILDKFLRHCESLRPGAAPRDMMDAFILSAEKKAAGDSHGGGARLDLENVPATITDIFGASQDTLSTALQWLLLLFTRYPDVQTRVQAELDQVVGRDRLPCMGDQPNLPYVLAFLYEAMRFSSFVPVTIPHATTANTSVLGYHIPKDTVVFVNQWSVNHDPLKWPNPENFDPARFLDKDGLINKDLTSRVMIFSVGKRRCIGEELSKMQLFLFISILAHQCDFRANPNEPAKMNFSYGLTIKPKSFKVNVTLRESMELLDSAVQNLQAKETCQ
With B1 the binding was “binds”.
